This note sets out measurements from patent publication US20040208922A1, “Method for loading lipid like vesicles with drugs or other chemicals” (The Regents of the University of California, priority 1995, published 2004).

Data set [1] in a line: Loading of hydrophobic ions (cyanine dye) into vesicles by pH-gradient-generated electrical potential. It is filed as physicochemical. As to conditions: 10 uM dye.
Data set [2] is described as follows: Efflux of spin-labeled acid out of dialysis tubing containing vesicles (ESR signal). The data set is classed as physicochemical.

For the compound `CCN1/C(=C/C=C/C=C/c2sc3ccccc3[n+]2CC)Sc2ccccc21.[I-]` [dithiasanine iodide], in data set [1] (internal volume about 10%), the external cyanine concentration entry is “about 100 nM” and the “final cyanine concentration inside the vesicles” value was “about 100 uM”. The “final accumulation relative to the aqueous solution outside of the vesicles” value in data set [1] (vesicles pH 4.5 inside, mixture pH 7.4, about 180 millivolts negative inside) is listed as “a thousand fold”.

On to `CC1(C)CC(NC(=O)CCC(=O)O)CC(C)(C)N1[O]` [spin-labeled carboxylic acid], for which the “ESR signal leaking out of dialysis tubing” value in data set [2] (No pH gradient, 3 min) was determined as 0.09; in data set [2] (No pH gradient, 10 min), 0.15; in data set [2] (No pH gradient, 20 min), 0.17; in data set [2] (No pH gradient, 40 min), 0.18; in data set [2] (pH gradient, 15 min), 0.11; in data set [2] (pH gradient, 30 min), 0.12. Also, the “ESR signal leaking out of dialysis tubing” value in data set [2] (pH gradient, 45 min) is reported as 0.15. Further, the figures for the “ESR signal, internal (intradialysis concentration at end of incubation)” value in data set [2] (No pH gradient) and in data set [2] (pH gradient) were 0.24 and 3.0, respectively.
